Data reported in publication PMC3498158.
These are yes or no findings as the source states them, for the method shown. Binding can be weak; no strength is given.

Target: T1, USP (ultraspiracle), endogenous in aff3 cells (Bombyx mori (endogenous in aff3)) (UniProt P49700)
T1 sequence: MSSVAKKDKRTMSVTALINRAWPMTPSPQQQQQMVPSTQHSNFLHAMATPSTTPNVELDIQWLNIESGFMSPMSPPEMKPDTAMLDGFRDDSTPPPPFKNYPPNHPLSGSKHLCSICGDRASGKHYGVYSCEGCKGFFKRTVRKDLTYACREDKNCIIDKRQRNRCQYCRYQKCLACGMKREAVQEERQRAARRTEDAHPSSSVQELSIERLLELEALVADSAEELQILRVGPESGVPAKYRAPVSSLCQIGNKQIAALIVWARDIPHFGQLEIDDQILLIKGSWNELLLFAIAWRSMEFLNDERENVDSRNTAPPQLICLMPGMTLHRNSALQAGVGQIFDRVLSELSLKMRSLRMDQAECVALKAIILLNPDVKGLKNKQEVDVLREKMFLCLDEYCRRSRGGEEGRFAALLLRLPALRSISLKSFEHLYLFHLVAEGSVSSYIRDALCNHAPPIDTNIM
Assay: native gel or EMSA; super shift assay: whole-cell extracts of aff3 cells overexpressing V5-tagged EcR-A or EcR-B1 incubated with 32P probes (BmEcRB1-E1, BmE75A-EcRE, BHR3B-EcRE) 20 min on ice, then anti-V5 and anti-USP antibodies together 1.5 h on ice; 4% polyacrylamide gel; both proteins found in one protein-DNA complex (super-shift2)

- binding: binds
Substance: BmEcR-A tagged with a V5 antigen (A^T) (Bombyx mori) (receptor)
